Our source for the binding values is paper PMC10266913.

Protein sequences, listed by entry. Tags and fused reporters are not part of them.
UniProt Q86U44: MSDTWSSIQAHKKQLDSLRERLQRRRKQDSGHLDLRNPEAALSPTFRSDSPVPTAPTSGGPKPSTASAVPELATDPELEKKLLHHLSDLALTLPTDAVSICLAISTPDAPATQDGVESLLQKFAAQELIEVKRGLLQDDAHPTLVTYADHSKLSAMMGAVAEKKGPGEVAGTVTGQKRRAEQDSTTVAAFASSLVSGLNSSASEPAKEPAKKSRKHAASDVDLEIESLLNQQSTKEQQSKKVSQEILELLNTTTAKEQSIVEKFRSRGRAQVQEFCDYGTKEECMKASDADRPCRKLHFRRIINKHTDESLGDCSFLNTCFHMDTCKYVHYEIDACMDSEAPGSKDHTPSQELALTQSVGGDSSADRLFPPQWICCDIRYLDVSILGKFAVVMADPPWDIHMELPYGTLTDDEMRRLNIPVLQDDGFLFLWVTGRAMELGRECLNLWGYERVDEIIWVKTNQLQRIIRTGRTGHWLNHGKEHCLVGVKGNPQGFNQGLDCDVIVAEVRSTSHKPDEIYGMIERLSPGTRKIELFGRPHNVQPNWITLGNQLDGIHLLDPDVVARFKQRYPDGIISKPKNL

Results are given in words; binding and its absence hold for the method and conditions named. Binding seen in cells or lysates may run through a third protein. Some results given as binding are weak or reduced against the parent protein; the word gives no strength.

In this test the target is T1, DiGeorge syndrome critical region 8 (DGCR8) (human (endogenous in SCAPs)) (UniProt Q8WYQ5).
T1 sequence: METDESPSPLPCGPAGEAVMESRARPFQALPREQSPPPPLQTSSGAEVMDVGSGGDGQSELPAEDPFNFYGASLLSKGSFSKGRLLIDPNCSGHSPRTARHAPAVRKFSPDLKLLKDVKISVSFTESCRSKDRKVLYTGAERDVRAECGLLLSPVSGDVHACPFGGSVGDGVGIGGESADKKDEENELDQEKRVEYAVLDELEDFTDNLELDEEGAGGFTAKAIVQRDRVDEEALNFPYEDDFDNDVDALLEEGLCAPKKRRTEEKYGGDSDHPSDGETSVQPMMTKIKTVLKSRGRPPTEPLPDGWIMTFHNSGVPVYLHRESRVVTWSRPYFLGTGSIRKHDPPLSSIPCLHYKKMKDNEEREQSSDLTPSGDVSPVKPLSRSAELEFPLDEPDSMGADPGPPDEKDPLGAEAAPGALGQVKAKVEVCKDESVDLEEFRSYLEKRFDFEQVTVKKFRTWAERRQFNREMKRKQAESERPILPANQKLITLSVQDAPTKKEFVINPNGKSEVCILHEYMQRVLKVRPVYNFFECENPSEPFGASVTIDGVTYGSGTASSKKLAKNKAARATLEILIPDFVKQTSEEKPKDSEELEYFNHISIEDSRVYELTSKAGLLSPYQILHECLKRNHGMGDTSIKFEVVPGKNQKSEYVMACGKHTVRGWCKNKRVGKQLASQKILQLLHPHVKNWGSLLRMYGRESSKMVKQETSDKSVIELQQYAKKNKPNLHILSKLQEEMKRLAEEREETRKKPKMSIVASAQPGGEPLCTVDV
As to the kind of experiment: co-IP; SCAPs lysed with IP lysis buffer (Invitrogen); antibodies to METTL3 and DGCR8, western blot; with and without RNase (RNase attenuated the coprecipitation). (In general: In western blotting, separated proteins are transferred to a membrane and probed.)

For “Methyltransferase-like 3 (METTL3) (from UniProt Q86U44 1-580)”, the binding entry is recorded as “binds”.
